Data from PubChem BioAssay AID504467 (National Center for Advancing Translational Sciences (NCATS), 2011).
The whole screen tested about 330,000 compounds, of which about 7,700 (2.3%) were called active. Inconclusive means that the source gave no clear call. Such entries were picked first, then a sample of the others. Calls follow the shape of the dose curve; as a rule, active = well fitted inhibition curve with a large enough effect; inconclusive = small, poorly fitted or top-dose-only effect, or effect the other way; inactive = flat fitted curve, though single readings scatter. Potencies of inconclusive entries are doubtful fits and often do not repeat.

experiment: qHTS screen for small molecules that inhibit ELG1-dependent DNA repair in human embryonic kidney (HEK293T) cells expressing luciferase-tagged ELG1; settings: HEK293T ELG1-luciferase reporter, luminescence, 16 h, DNA damage induced by 5-fluorouridine; activity change, negative = inhibition: at 46.1 µM (top of the series); also: nearly all actives have a fitted effect of over 55% in size
Method in brief: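 5-Fluorouridine DNA damage + compound/DMSO, 2,000 cells/well, 16 h, 37 °C/5% CO2. ONE-Glo, 30 min RT, luminescence. Readout = decrease in reporter signal.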
% is scaled to controls: 0 for no effect and ±100 for the full control effect; potency is read from the fitted curve at half-maximal effect.

SMILES | Potency | activity change, negative = inhibition
Cc1cc(/N=C/C=C2\N(C)c3ccccc3C2(C)C)n(CCC#N)n1 | inconclusive: 31.6 µM [inhibitor, single point] | –
COc1ccc(OC)c(-n2nnnc2SCC(=O)Nc2cc(C)ccc2OC)c1 | inconclusive: 10.3 µM [inhibitor, partial curve, poor fit] | –
COc1ccccc1CNC(=O)C1CCN(c2nc3ccccc3o2)CC1 | – | inactive: -24.9%
COCC(C)NC(=O)c1cc2c(ccc3ccccc32)oc1=O (stereo not given) | – | inactive: 17.5%
CC(C)C(c1nnnn1C(C)(C)C)N1CCOCC1 (stereo not given) | – | inactive: 2.96%
Cc1cc(C=O)c(C)n1-c1cccc(C(=O)O)c1 | – | inactive: 12.7%
O=C(CCN1CCN(S(=O)(=O)c2ccc(Br)cc2)CC1)Nc1ccccc1F | inconclusive: 29.1 µM [inhibitor, single point] | –
O=C(c1ccc(=O)[nH]n1)N1CCN(S(=O)(=O)c2ccc3ccccc3c2)CC1 | active: 16.4 µM | –
O=C(Nc1ccccc1)c1cc(S(=O)(=O)NCc2ccncc2)ccc1Cl | inconclusive: 5.8 µM [inhibitor, full curve] | –
CC(=O)NCCn1c(SCc2ccc(C)cc2)nc2ccccc2c1=O | inconclusive: 7.31 µM [inhibitor, partial curve, poor fit] | –
COc1cccc(-c2ccc3ncnc(N(C)Cc4ccco4)c3c2)c1 | inconclusive: 20.6 µM [inhibitor, single point] | –
Oc1c(C(Nc2cccc(C(F)(F)F)c2)c2ccncc2)ccc2cccnc12 (stereo not given) | inconclusive: 3.66 µM [inhibitor, partial curve, poor fit] | –
COc1ccccc1NS(=O)(=O)c1ccc(C(=O)N2CCN(c3ccccc3)CC2)cc1 | inconclusive: 14.6 µM [inhibitor, partial curve] | –
Cc1cc(C(=O)N/N=C/c2sccc2C)no1 | inconclusive: 23.1 µM [activator, single point] | –
CCN(CC)CCCN(C(=O)c1ccccc1C)c1nc(-c2ccc(OC)cc2)cs1 | inconclusive: 35.5 µM [inhibitor, single point] | –
CCc1ccc2c(CN3CCN(Cc4ccccc4)CC3)cc(=O)oc2c1 | – | inactive: -8.72%
Cn1c(=O)c2c(ncn2CC(=O)Nc2ccccc2Sc2ccccc2)n(C)c1=O | inconclusive: 23.1 µM [inhibitor, partial curve] | –
CCOC(=O)C1=C(COC(=O)/C=C/c2ccc(OC)cc2OC)NC(=O)NC1C (stereo not given) | inconclusive: 29.1 µM [inhibitor, single point] | –
CC(C)NC(=O)COc1cccc2ccccc12 | – | inactive: 9.07%
COc1ccc(S(=O)(=O)Nc2cc3c4c(c2)CCN4C(=O)CC3)cc1 | inconclusive: 25.9 µM [activator, single point] | –
COc1ccc(C(=O)COC(=O)Cn2c(C)csc2=O)c(OC)c1 | inconclusive: 18.3 µM [activator, single point] | –
Cc1cc(=O)n2[nH]c(C)c(-c3ccccc3)c2n1 | – | inactive: -12.4%
Nc1nc(Nc2ccccc2)nc(NC2CCCCC2)c1[N+](=O)[O-] | inconclusive: 32.6 µM [inhibitor, single point] | –
CC(C)OCCCNc1ncnc2c1[nH]c1ccccc12 | active: 9.2 µM | –

SMILES | Potency | activity change, negative = inhibition
CC(C)Cn1c(-c2ccc(C#N)cc2)nc2c1c(=O)[nH]c(=O)n2CC(C)C | – | inactive: 7.18%
Cc1ccc(CNc2cccnc2)cc1 | inconclusive: 8.2 µM [activator, partial curve] | –
CCOc1ccc(N(CC(=O)Nc2ccc(C)cc2)S(C)(=O)=O)cc1 | inconclusive: 18.3 µM [activator, partial curve] | –
CCOC(=O)CSc1nc2cc3c(cc2cc1C#N)OCO3 | inconclusive: 18.4 µM [activator, partial curve] | –
COc1cccc(NC(=O)CNCc2ccccc2)c1 | inconclusive: 11.6 µM [activator, partial curve, poor fit] | –
Cc1cc(C(=O)N/N=C/c2cccn2C)no1 | – | inactive: 28.9%
C/C(=N\Nc1ccc([N+](=O)[O-])cc1)c1ccc2c(c1)OCO2 | inconclusive: 29.1 µM [activator, single point] | –
COc1cc(/C=N/NC(=O)c2nc(-c3ccccc3)n(-c3ccccc3)n2)ccc1O | inconclusive: 7.31 µM [inhibitor, partial curve] | –
CCOc1cc(/C=C2/C(=O)ON=C2C)ccc1O | – | inactive: -1.59%
CCOC(=O)C1=C(CSCc2ccccc2)NC(=O)NC1c1cc(C)ccc1C (stereo not given) | inconclusive: 20.6 µM [inhibitor, single point] | –
Cc1ccc(C(=O)CCC2CCCCC2=O)cc1 (stereo not given) | inconclusive: 14.6 µM [activator, partial curve] | –
O=C(NCCN1CCOCC1)c1cc2ccccc2o1 | inconclusive: 18.4 µM [activator, partial curve, poor fit] | –
CC1Cc2nc(SCC(=O)Nc3ccc4c(c3)OCO4)n(Cc3ccccc3)c(=O)c2S1 (stereo not given) | inconclusive: 6.51 µM [activator, full curve] | –
COc1ccc(Nc2ncnc3ccc(Br)cc23)cc1OC | inconclusive: 5.17 µM [inhibitor, partial curve] | –
CCOc1ccc(N(C)S(=O)(=O)c2ccc(C)c(C(=O)OCC(=O)c3c[nH]c4ccccc34)c2)cc1 | inconclusive: 6.51 µM [inhibitor, partial curve] | –
Cc1cccc(-n2c(C)cc(C=C(C#N)C#N)c2C)c1 | – | inactive: 19.8%
OC(COC(c1ccc(F)cc1)c1ccc(F)cc1)CN1CCCC1 (stereo not given) | inconclusive: 0.231 µM [inhibitor, single point] | –
Cc1ccc(-c2nc(CS(=O)CC(=O)NC3CCCC(C)C3C)c(C)o2)cc1 (stereo not given) | – | inactive: -13.3%
COc1ccc(CCC(=O)OCC(=O)Nc2sccc2C#N)cc1 | inconclusive: 14.6 µM [activator, single point] | –
CCN(CC)c1ccc(/C=N/N2CCOCC2)c(O)c1 | inconclusive: 8.2 µM [activator, partial curve] | –
COC(=O)CCCCCNC(=S)Nc1ccc2[nH]c(=O)[nH]c2c1 | – | inactive: -3.37%
O=C(O)c1ccc2c(c1)S(=O)(=O)c1cc(Cl)ccc1C2=O | inconclusive: 9.2 µM [activator, partial curve, poor fit] | –
CN(CCN1CCOCC1)Cc1nc(-c2ccc(Cl)cc2)no1 | inconclusive: 10.3 µM [inhibitor, partial curve, poor fit] | –
COc1ccc(CCNC(=O)c2ccc(-c3cccc([N+](=O)[O-])c3)o2)cc1OC | inconclusive: 23.1 µM [inhibitor, single point] | –

SMILES | Potency | activity change, negative = inhibition
COc1ccc(C2/C=C\CN(CC(C)C)CC(=O)N2Cc2cccc(F)c2)cc1 (stereo not given) | inconclusive: 18.3 µM [inhibitor, partial curve, poor fit] | –
O=C(N/N=C/c1cccc2ccccc12)c1cc(C2CC2)[nH]n1 | – | inactive: 0%
COc1nc(-c2ccccc2)cc(-c2ccc3c(c2)OCO3)c1C#N | inconclusive: 6.51 µM [inhibitor, single point] | –
O=C(Oc1cccc(F)c1)c1ccc2c(=O)n3c(nc2c1)CCC3 | – | inactive: 8.26%
COc1ccc(N2C(=O)CCC2(C#N)c2ccc(Br)cc2)cc1 (stereo not given) | – | inactive: 0.894%
COc1ccc(C(CCNCc2ccc(N(C)C)cc2)C(C)C)cc1 (stereo not given) | inconclusive: 20.6 µM [inhibitor, single point] | –
CC(C)(C)C1CCc2c(sc(NC(=O)c3cc(C4CC4)on3)c2C#N)C1 (stereo not given) | – | inconclusive: 18.9% [activator]
COc1ccc(/C=N\NC(=O)c2ccccc2)cc1COc1ccccc1 | inconclusive: 20.6 µM [inhibitor, single point] | –
CC(C)C(NC(=O)CCNC(=O)c1ccccc1Cl)c1nc2ccccc2[nH]1 (stereo not given) | – | inactive: 26.7%
CCOC(=O)C1=C(C)Nc2nnnn2C1c1cccc(OC)c1OC (stereo not given) | – | inactive: -27.3%
Fc1cc(F)c2nc(N3CCCC3)sc2c1 | inconclusive: 14.6 µM [activator, partial curve] | –
O=C(NCCCNC(=O)c1cccnc1)c1ccc(Cl)cc1 | inconclusive: 32.6 µM [activator, partial curve, poor fit] | –
CCOc1cc2nc(-c3ccc(OC)c(OC)c3)nc(N3CC(C)OC(C)C3)c2cc1OC (stereo not given) | inconclusive: 1.84 µM [inhibitor, full curve] | –
C=CC[C@@H](CC(=O)N[C@H](CO)Cc1ccccc1)C(=O)N[C@@H](C)COC(=O)[C@@H](CC=C)Cc1ccc(F)cc1 | inconclusive: 9.2 µM [inhibitor, partial curve] | –
Cc1ccc(NC(=O)c2cc(NC(=O)CCC(=O)O)ccc2N2CCCCC2)cc1 | inconclusive: 2.06 µM [activator, partial curve, poor fit] | –
O=C(Nc1ccccc1Cl)c1cccc(NC(=O)c2cccs2)c1 | inconclusive: 20.6 µM [inhibitor, partial curve, poor fit] | –
CC1CCN(C(=O)C2CC(c3ccc(F)cc3)=NO2)CC1 (stereo not given) | inconclusive: 18.4 µM [activator, partial curve] | –
COc1ccc(N2CC(C(=O)Nc3ccc(N4CCOCC4)cc3)CC2=O)cc1 (stereo not given) | inconclusive: 25.9 µM [activator, partial curve, poor fit] | –
CCOC(=O)N1CCN(C(=O)c2cc(S(=O)(=O)N3CCCC3)cn2C)CC1 | inconclusive: 20.6 µM [activator, single point] | –
CCO/C(C)=C1\C(=O)N(CC)c2ccccc21 | – | inactive: 0%
O=C(CCC(=O)OCc1ccc([N+](=O)[O-])cc1Cl)Nc1ccccc1 | – | inactive: 7.45%
Cc1cc(C)n2nc(SC(C)C(=O)NC3CCCCC3C)nc2n1 (stereo not given) | inconclusive: 0.291 µM [inhibitor, partial curve, poor fit] | –

Reformatted as a markdown table: part of the list above.

| SMILES | Potency | activity change, negative = inhibition |
| --- | --- | --- |
| O=C(c1ccc(=O)[nH]n1)N1CCN(S(=O)(=O)c2ccc3ccccc3c2)CC1 | active: 16.4 µM | – |
| O=C(Nc1ccccc1)c1cc(S(=O)(=O)NCc2ccncc2)ccc1Cl | inconclusive: 5.8 µM [inhibitor, full curve] | – |
| CC(=O)NCCn1c(SCc2ccc(C)cc2)nc2ccccc2c1=O | inconclusive: 7.31 µM [inhibitor, partial curve, poor fit] | – |
| COc1cccc(-c2ccc3ncnc(N(C)Cc4ccco4)c3c2)c1 | inconclusive: 20.6 µM [inhibitor, single point] | – |
| COc1ccccc1NS(=O)(=O)c1ccc(C(=O)N2CCN(c3ccccc3)CC2)cc1 | inconclusive: 14.6 µM [inhibitor, partial curve] | – |
| CCOC(=O)C1=C(COC(=O)/C=C/c2ccc(OC)cc2OC)NC(=O)NC1C (stereo not given) | inconclusive: 29.1 µM [inhibitor, single point] | – |
| COc1ccc(S(=O)(=O)Nc2cc3c4c(c2)CCN4C(=O)CC3)cc1 | inconclusive: 25.9 µM [activator, single point] | – |
| COc1ccc(C(=O)COC(=O)Cn2c(C)csc2=O)c(OC)c1 | inconclusive: 18.3 µM [activator, single point] | – |
| Nc1nc(Nc2ccccc2)nc(NC2CCCCC2)c1[N+](=O)[O-] | inconclusive: 32.6 µM [inhibitor, single point] | – |
| CC(C)Cn1c(-c2ccc(C#N)cc2)nc2c1c(=O)[nH]c(=O)n2CC(C)C | – | inactive: 7.18% |
| COc1cccc(NC(=O)CNCc2ccccc2)c1 | inconclusive: 11.6 µM [activator, partial curve, poor fit] | – |
| CCOC(=O)C1=C(CSCc2ccccc2)NC(=O)NC1c1cc(C)ccc1C (stereo not given) | inconclusive: 20.6 µM [inhibitor, single point] | – |
| O=C(NCCN1CCOCC1)c1cc2ccccc2o1 | inconclusive: 18.4 µM [activator, partial curve, poor fit] | – |
| CC1Cc2nc(SCC(=O)Nc3ccc4c(c3)OCO4)n(Cc3ccccc3)c(=O)c2S1 (stereo not given) | inconclusive: 6.51 µM [activator, full curve] | – |
| CCOc1ccc(N(C)S(=O)(=O)c2ccc(C)c(C(=O)OCC(=O)c3c[nH]c4ccccc34)c2)cc1 | inconclusive: 6.51 µM [inhibitor, partial curve] | – |
| Cc1ccc(-c2nc(CS(=O)CC(=O)NC3CCCC(C)C3C)c(C)o2)cc1 (stereo not given) | – | inactive: -13.3% |
| CN(CCN1CCOCC1)Cc1nc(-c2ccc(Cl)cc2)no1 | inconclusive: 10.3 µM [inhibitor, partial curve, poor fit] | – |
| COc1ccc(C(CCNCc2ccc(N(C)C)cc2)C(C)C)cc1 (stereo not given) | inconclusive: 20.6 µM [inhibitor, single point] | – |
| COc1ccc(N2CC(C(=O)Nc3ccc(N4CCOCC4)cc3)CC2=O)cc1 (stereo not given) | inconclusive: 25.9 µM [activator, partial curve, poor fit] | – |
| CCO/C(C)=C1\C(=O)N(CC)c2ccccc21 | – | inactive: 0% |
| O=C(CCC(=O)OCc1ccc([N+](=O)[O-])cc1Cl)Nc1ccccc1 | – | inactive: 7.45% |
